Measured data: PubChem BioAssay AID1053208 (Peter MacCallum Cancer Centre, 2014)
Shown is one part, drawn at random, of about 17,000 deposited reagents. 788 of all reagents (4.7%) were called active. 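Calls rest on z-score classes alone; an extra cut-off of viability at most 70% of control was not applied to them.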 Reagents against one gene are numbered here. Some reagents were tested in more than one well and are listed for each. Not all columns of the deposit are shown.

Test: 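Synthetic lethal interactions between gene loss and doxorubicin in osteosarcoma cells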 (primary screen)
Cell system: mouse osteosarcoma cells, early-passage culture from an engineered mouse model of fibroblastic bone tumour
Reagent: siRNA pool against mouse genes, 40 nM
Timing: about 120 h (48 h before drug, then 72 h with drug)
Treatment: doxorubicin 100 nM for 72 h, roughly 30-40% inhibitory dose
Detection: 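Viability read as ATP luminescence after 72 h of 100 nM doxorubicin or none, duplicate wells averaged, scaled to non-targeting siRNA, then expressed as robust z-scores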
Reading the numbers: viability z-score with doxorubicin: higher = more viable cells under doxorubicin; viability z-score without drug: higher = more viable cells with knock-down alone
Rule for the call: 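Called active if knock-down leaves viability unchanged without drug (z within -2 to 2) but lowers it with doxorubicin (z at or under -2)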

After knock-down of Gnb1 (guanine nucleotide binding protein (G protein), beta 1) the results were combined z-score class no change with or without drug; viability z-score with doxorubicin 1.12; viability z-score without drug 1.18; inactive.
With knock-down of Snrnp25 (small nuclear ribonucleoprotein 25 (U11/U12)), the record shows combined z-score class no change with or without drug; viability z-score with doxorubicin -0.79; viability z-score without drug -0.51; inactive.
With knock-down of Cotl1 (coactosin like F-actin binding protein 1) the results were combined z-score class no change with or without drug; viability z-score with doxorubicin 1.12; viability z-score without drug 0.34; inactive.
BC002230 showed combined z-score class no change with or without drug; viability z-score with doxorubicin 0.9; viability z-score without drug -0.17; inactive.
Camkk2 (calcium/calmodulin-dependent protein kinase kinase 2, beta) showed combined z-score class no change with or without drug; viability z-score with doxorubicin -0.45; viability z-score without drug 0.17; inactive.
Lrif1 (ligand dependent nuclear receptor interacting factor 1) gave combined z-score class no change with or without drug; viability z-score with doxorubicin 1.46; viability z-score without drug 1.18; inactive.
For D6ERTD245E, the values are combined z-score class no change with or without drug; viability z-score with doxorubicin -1.57; viability z-score without drug 0.84; inactive.
Against Gp1bb (glycoprotein Ib, beta polypeptide) the deposit lists combined z-score class no change with or without drug; viability z-score with doxorubicin -1.12; viability z-score without drug -0.84; inactive.
For Nscme3l (NSE3 homolog, SMC5-SMC6 complex component like), the entry reads combined z-score class high cell count without drug only; viability z-score with doxorubicin 1.8; viability z-score without drug 2.02; inactive.
Depletion of Cars1 (cysteinyl-tRNA synthetase 1) gave: combined z-score class no change with or without drug; viability z-score with doxorubicin -1.69; viability z-score without drug -1.01; inactive.
Against Magi3, the values are combined z-score class no change with or without drug; viability z-score with doxorubicin -1.12; viability z-score without drug -0.84; inactive.
Against Magi3, the entry reads combined z-score class no change with or without drug; viability z-score with doxorubicin -0.45; viability z-score without drug -0.17; inactive.
With knock-down of Calcoco1 (calcium binding and coiled coil domain 1), the record shows combined z-score class no change with or without drug; viability z-score with doxorubicin 1.46; viability z-score without drug 1.18; inactive.
With knock-down of S100a10 (S100 calcium binding protein A10 (calpactin)) the results were combined z-score class no change with or without drug; viability z-score with doxorubicin 0.67; viability z-score without drug 1.35; inactive.
Dipk1a (divergent protein kinase domain 1A) scored combined z-score class no change with or without drug; viability z-score with doxorubicin 0.67; viability z-score without drug 0.84; inactive.
For Abhd14a (abhydrolase domain containing 14A) the deposit lists combined z-score class no change with or without drug; viability z-score with doxorubicin 0.22; viability z-score without drug 1.85; inactive.
After knock-down of Lama4 (laminin, alpha 4), the screen gave combined z-score class no change with or without drug; viability z-score with doxorubicin -0.67; viability z-score without drug -0.34; inactive.
4930412C18Rik (RIKEN cDNA 4930412C18 gene) showed combined z-score class no change with or without drug; viability z-score with doxorubicin -1.12; viability z-score without drug 1.18; inactive.
P2ry10 (purinergic receptor P2Y, G-protein coupled 10) scored combined z-score class no change with or without drug; viability z-score with doxorubicin 1.46; viability z-score without drug 1.69; inactive.
With knock-down of Qprt (quinolinate phosphoribosyltransferase), the record shows combined z-score class no change with or without drug; viability z-score with doxorubicin 0; viability z-score without drug 0; inactive.
For Gmeb1 (glucocorticoid modulatory element binding protein 1), the entry reads combined z-score class no change with or without drug; viability z-score with doxorubicin -0.79; viability z-score without drug -1.18; inactive.
With knock-down of Nr2f2 (nuclear receptor subfamily 2, group F, member 2) #1, the screen gave combined z-score class no change with or without drug; viability z-score with doxorubicin 0.9; viability z-score without drug -0.17; inactive.
Nr2f2 (nuclear receptor subfamily 2, group F, member 2) #2 showed combined z-score class no change with or without drug; viability z-score with doxorubicin 0.67; viability z-score without drug 1.52; inactive.
Silencing of Tnfrsf9 (tumor necrosis factor receptor superfamily, member 9) gave: combined z-score class no change with or without drug; viability z-score with doxorubicin 0.9; viability z-score without drug 0.67; inactive.
Silencing of Orc1 (origin recognition complex, subunit 1) gave: combined z-score class no change with or without drug; viability z-score with doxorubicin -1.24; viability z-score without drug -0.51; inactive.
After knock-down of Ebp (EBP cholestenol delta-isomerase), the screen gave combined z-score class no change with or without drug; viability z-score with doxorubicin -1.69; viability z-score without drug -0.84; inactive.
With knock-down of A630001G21RIK the results were combined z-score class no change with or without drug; viability z-score with doxorubicin -0.22; viability z-score without drug -0.84; inactive.
Knock-down of Grin2d (glutamate receptor, ionotropic, NMDA2D (epsilon 4)) gave: combined z-score class no change with or without drug; viability z-score with doxorubicin -0.67; viability z-score without drug -0.51; inactive.
For Best2 (bestrophin 2) the deposit lists combined z-score class low cell count with doxorubicin only; viability z-score with doxorubicin -2.25; viability z-score without drug 0.34; active.
Knock-down of Smarcc1 (SWI/SNF related BAF chromatin remodeling complex subunit C1) came out at: combined z-score class no change with or without drug; viability z-score with doxorubicin 0.22; viability z-score without drug 0.17; inactive.
Ccdc121 (coiled-coil domain containing 121) showed combined z-score class no change with or without drug; viability z-score with doxorubicin 0.79; viability z-score without drug 1.18; inactive.
Dpysl2 (dihydropyrimidinase-like 2) scored combined z-score class no change with or without drug; viability z-score with doxorubicin 0.34; viability z-score without drug 0.84; inactive.
Ppan (peter pan homolog) scored combined z-score class no change with or without drug; viability z-score with doxorubicin 1.46; viability z-score without drug 1.01; inactive.
Depletion of Kcne1 came out at: combined z-score class no change with or without drug; viability z-score with doxorubicin 1.35; viability z-score without drug 0.84; inactive.
Against Trim31 (tripartite motif-containing 31), the entry reads combined z-score class high cell count with doxorubicin only; viability z-score with doxorubicin 2.14; viability z-score without drug 1.52; inactive.
With knock-down of Pabpc5 (poly(A) binding protein, cytoplasmic 5) the results were combined z-score class low cell count with doxorubicin only; viability z-score with doxorubicin -2.02; viability z-score without drug -1.35; active.

Reformatted: entries from further up.
{"Gene":"Abhd14a (abhydrolase domain containing 14A)","reagent":1,"combined z-score class":"no change with or without drug","viability z-score with doxorubicin":0.22,"viability z-score without drug":1.85,"activity call":"inactive"}
{"Gene":"Lama4 (laminin, alpha 4)","reagent":1,"combined z-score class":"no change with or without drug","viability z-score with doxorubicin":-0.67,"viability z-score without drug":-0.34,"activity call":"inactive"}
{"Gene":"4930412C18Rik (RIKEN cDNA 4930412C18 gene)","reagent":1,"combined z-score class":"no change with or without drug","viability z-score with doxorubicin":-1.12,"viability z-score without drug":1.18,"activity call":"inactive"}
{"Gene":"P2ry10 (purinergic receptor P2Y, G-protein coupled 10)","reagent":1,"combined z-score class":"no change with or without drug","viability z-score with doxorubicin":1.46,"viability z-score without drug":1.69,"activity call":"inactive"}
{"Gene":"Qprt (quinolinate phosphoribosyltransferase)","reagent":1,"combined z-score class":"no change with or without drug","viability z-score with doxorubicin":0,"viability z-score without drug":0,"activity call":"inactive"}
